Data on 1 sequence can be found in publication PMC12723722.

Protein sequences, listed by entry. Tags and fused reporters are not part of them. Residues count along the entry.
UniProt Q15910, 340-435 T345D: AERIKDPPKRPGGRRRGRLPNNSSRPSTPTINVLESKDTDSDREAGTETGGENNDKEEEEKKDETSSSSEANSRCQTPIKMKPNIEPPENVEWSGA

Construct, isoform or probe ends are uncertain for at least one entry.

The target in data set [1] is EZH2 loop TD (phosphomimetic) T345D (UniProt Q15910). Kind of data set: MST. To be noted: no significant difference from WT, value only in figure; MST: Monolith NT.115, standard treated capillaries, 40% MST power; binding buffer; recombinant protein; protein details: His tag implied (pET22b, HisTrap).
For data set [2] the target is unchanged. Description: EMSA. To be noted: small but clear shift; EMSA: LightShift RNA EMSA kit protocol, 1-2 nM refolded RNA, 30 min room temperature, 4 or 6% native PAGE, 0.5x TBE; recombinant protein; protein details: His tag implied (pET22b, HisTrap). On the technique in general: In EMSA bound probe runs differently from free probe, usually more slowly.

“AAGAAUGGCCUCGCGGAGGCAUGCGUCAUGCUAGCGUGCGGGGUACUCUU [R50]”: the binding result in data set [1] and in data set [2] was “binds” throughout.
